These results are taken from PubChem BioAssay AID493014 (National Center for Advancing Translational Sciences (NCATS), 2011).

The experiment in a line: qHTS Assay to Find Inhibitors of Chronic Active B-Cell Receptor Signaling. The following applies: ABC-DLBCL IkBa-CBG/CBR reporter, luminescence ratio (green luciferase fused to IkBa over red control in TMD8 lymphoma cells), 4 h. The method, boiled down: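 TMD8 ABC-DLBCL cells carrying doxycycline-inducible green luciferase fused to IkappaBalpha plus unfused red luciferase were exposed to compounds (up to 46 uM) for 4 hrs at 37C. Activity came from the overlap-corrected green/red luminescence ratio.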

Where [1] appears, read: measured here: CBR red luminescence, cell number.
Where [2] appears, read: measured here: IkBa-CBG green luminescence.

This is one part of the list. Shown are side measurements of this screen, not its main read-out; they come without a call. Most of these compounds were active or inconclusive in the main read-out, so they are no random draw. Words in brackets tell the shape of the fitted curve; partial curves, single points and poor fits give uncertain potencies.

As a reminder, the AC50 is the concentration at which the activity in the assay is half-maximal. Regarding `CCCCCSc1nc(N2CCOCC2)c2c(c1C#N)CC(C)(C)OC2`, the AC50 under setting [1] was 8.91 µM [rising, partial curve].

As to `CC(=O)c1ccc(NC(=O)c2ccc(NC(=O)CCS(=O)(=O)c3cccs3)cc2)cc1`, the AC50 under setting [1] was 12.6 µM [rising, single point].

For the molecule `Cc1ccccc1-n1c(SCC(=O)Nc2ccc3c(c2)OCO3)nnc1-c1ccccn1`, the AC50 under setting [1] is 10.3 µM [falling, partial curve, poor fit].

Consider `NNC(=O)c1ccc2[nH]c3c(c2c1)CCCC3`, for which the AC50 under setting [1] is 35.5 µM [falling, single point].

`O=C(CSCc1nc2ccccc2[nH]1)N1CCN(c2ccc(F)cc2)CC1`: the AC50 under setting [1] was 7.08 µM [falling, full curve].

For the molecule `Cc1cc2cc(CCNS(C)(=O)=O)c(=O)[nH]c2cc1C`, the concentration at half-maximal activity (AC50) under setting [1] was 6.31 µM [falling, single point].

In the case of `CNc1oc(-c2ccccc2F)nc1S(=O)(=O)c1ccc(C)cc1`, the concentration at half-maximal activity (AC50) under setting [1] was 11.2 µM [falling, partial curve, poor fit].

Turning to `O=C(Cc1ccccc1)NC(NC(=S)Nc1cc(Cl)ccc1Cl)C(Cl)(Cl)Cl` (configuration not stated), the AC50 under setting [1] is 10 µM [falling, partial curve].

`O=C1/C(=C/c2cccnc2)CCC/C1=C\c1cccnc1`: the concentration at half-maximal activity (AC50) reads like this: under setting [1], 11.6 µM [falling, partial curve]; under setting [2], 2.06 µM [falling, partial curve, poor fit].

With `CCn1c2ccccc2c2cc(NC(=O)C(C)Oc3ccccc3)ccc21` (configuration not stated), the AC50 under setting [1] is 11.2 µM [rising, partial curve, poor fit].

`CN(C)S(=O)(=O)N1CCC(Oc2cccc(C(=O)NC3CCCCC3)c2)CC1`: under setting [1], the concentration at half-maximal activity (AC50) is 1.41 µM [falling, partial curve, poor fit].

For the molecule `Cc1nc(N2CCN(S(=O)(=O)c3ccccc3)CC2)c2cc(-c3ccccc3)sc2n1`, the AC50 under setting [1] was 18.4 µM [rising, partial curve, poor fit].

In the case of `COC(=O)c1ccc2c(=O)[nH]c(COC(=O)c3c(-c4ccccc4Cl)noc3C)nc2c1`, the AC50 under setting [1] is 29.1 µM [falling, single point].

In the case of `O=C(Nc1ccc(F)cc1)c1cc2c(s1)CCCC2`, the AC50 under setting [1] is 14.1 µM [falling, partial curve].

On to `CCC/C=N/NC(=O)c1ccccc1O`, for which the concentration at half-maximal activity (AC50) under setting [1] is 1.78 µM [falling, full curve].

Turning to `COc1ccccc1CNC(=O)C1CC(c2ccc([N+](=O)[O-])cc2)=NO1` (configuration not stated), the AC50 under setting [1] is 11.2 µM [falling, single point].

With `CCOC(=O)N1CCN(c2nc3ccccc3nc2C(C#N)S(=O)(=O)c2ccc(C)cc2)CC1` (configuration not stated), under setting [1], the half-maximal activity concentration (AC50) was 6.51 µM [rising, single point].

In the case of `Cc1cc(Nc2ccc(C(=O)O)cc2)nc(N)n1`, the concentration at half-maximal activity (AC50) under setting [1] was 15.8 µM [falling, single point].

Consider `CC1=NN(C(=S)Nc2ccccc2)C(c2ccccc2)C1` (configuration not stated), for which, under setting [1], the half-maximal activity concentration (AC50) is 20.6 µM [rising, partial curve].

With `COc1ccc2[nH]c3ccc(OC)cc3c2c1`, the half-maximal activity concentration (AC50) under setting [1] was 4.47 µM [rising, partial curve, poor fit].

Turning to `O=C(/C=C/c1cccc([N+](=O)[O-])c1)NC(=S)Nc1cccc(NC(=O)c2ccccc2Cl)c1`, the AC50 under setting [1] is 13 µM [falling, partial curve].

With `Cc1ccc(-c2noc(C3CCCCC3)n2)cc1`, under setting [1], the half-maximal activity concentration (AC50) was 3.16 µM [rising, full curve].

On to `COc1ccc(/C=C2\SC(=S)N(CCCC(=O)N3CCOCC3)C2=O)cc1OC`, for which the AC50 under setting [1] is 8.91 µM [falling, partial curve].

As to `CCC(=O)OCCNc1cc(SCCC(=O)OC)c2nonc2c1[N+](=O)[O-]`, the AC50 under setting [1] is 16.4 µM [falling, single point].

On to `O=C(Nc1ccon1)c1cc2c(s1)CCCC2`, for which the AC50 under setting [1] is 29.1 µM [falling, partial curve, poor fit].

Consider `O=C(CSc1ccc(C(F)(F)F)cn1)Nc1ccccc1`, for which the AC50 under setting [1] was 3.16 µM [falling, partial curve].

For `Cc1sc2nc(SCC(=O)c3cc(C)n(CC4CCCO4)c3C)n(C(C)C)c(=O)c2c1C` (configuration not stated), under setting [1], the AC50 was 8.91 µM [rising, partial curve, poor fit].

Regarding `CCOC(=O)c1sc(-c2ccc(OC)cc2)cc1N`, the AC50 under setting [1] is 2.91 µM [rising, partial curve].

As to `COc1ccc(N2CCN(C(=O)Cc3nn(C)c(=O)c4ccccc34)CC2)cc1`, under setting [1], the AC50 is 1.84 µM [rising, full curve, poor fit].

In the case of `COc1ccccc1C(=O)Oc1ccc(C(C)C)cc1`, the AC50 under setting [1] was 14.6 µM [falling, single point].

Turning to `N#CCSc1nnc(COc2cccc3ccccc23)n1-c1cccc(Cl)c1`, under setting [1], the AC50 was 20 µM [falling, single point].

Take `OC1(C2(O)CC(c3ccccc3)ON2)CCCCC1` (configuration not stated): the AC50 under setting [1] is 28.2 µM [falling, single point].

Take `CCOC(=O)c1cccc(NC(=O)c2cc3sccc3n2C)c1`: the concentration at half-maximal activity (AC50) under setting [1] was 16.4 µM [falling, partial curve].

In the case of `COc1ccc(C2=NOC(C(=O)O)C2)cc1` (configuration not stated), under setting [1], the AC50 is 0.58 µM [falling, partial curve, poor fit].

Consider `O=C(Nc1ccccc1C(=O)O)c1ccc(NC(=O)C2CCCO2)cc1` (configuration not stated), for which the concentration at half-maximal activity (AC50) under setting [1] is 11.2 µM [falling, partial curve, poor fit].

Consider `NC(=S)N/N=C/c1ccc2cccc(OCc3ccccc3)c2n1`, for which the AC50 under setting [1] was 3.55 µM [falling, partial curve, poor fit].

Consider `COc1cccc2cc(CC(=O)c3ccc(C)c(C)c3)c(=O)oc12`, for which the concentration at half-maximal activity (AC50) under setting [1] is 3.98 µM [falling, partial curve, poor fit].

Consider `O=C(c1ccccc1Cl)N1N=C(c2ccc(Br)cc2)CC1c1nc2ccccc2[nH]1` (configuration not stated), for which the concentration at half-maximal activity (AC50) under setting [1] is 14.1 µM [rising, single point].

In the case of `Cc1ccc(/C=C2\SC(=S)N(CCCC(=O)N3CCOCC3)C2=O)cc1`, the AC50 under setting [1] was 0.562 µM [falling, full curve].

Take `COc1ccc(-c2nn(-c3ccccc3)cc2C(=O)NC(=S)NNC(=O)c2ccncc2)cc1`: the AC50 is, setting by setting: under setting [1], 35.5 µM [rising, single point]; under setting [2], 11.2 µM [falling, partial curve].

`COc1ccc(Nc2nnc(SCC(=O)/C=C3/N(C)c4ccccc4C3(C)C)s2)cc1`: the AC50 under setting [1] was 23.1 µM [falling, partial curve, poor fit].

Regarding `O=C(/C=C/c1ccccc1)c1ccc(NC2=NCCCS2)cc1`, the AC50 is, setting by setting: under setting [1], 29.1 µM [falling, single point]; under setting [2], 29.1 µM [falling, partial curve, poor fit].

Turning to `COc1ccc(NC(=O)Cc2nc3ccccc3[nH]2)cc1`, the half-maximal activity concentration (AC50) under setting [1] is 11.2 µM [rising, partial curve].

Turning to `COc1cc([N+](=O)[O-])cc(/C=N/NC(=O)Cn2cncn2)c1O`, under setting [1], the AC50 was 11.2 µM [falling, partial curve, poor fit].

As to `Cc1c(Cl)cnc(NC(=O)COC(=O)C2CC3CCCC(C2)C3=O)c1Cl` (configuration not stated), the AC50 under setting [1] was 6.51 µM [falling, single point].

Turning to `COc1ccc(NC(=O)CN(C)C(=O)c2oc3c(ccc4ccccc43)c2C)cc1`, the AC50 under setting [1] is 2.31 µM [rising, partial curve, poor fit].

`CCOC(=O)c1c(C)[nH]c(C(=O)OCC(=O)Nc2sccc2C(N)=O)c1C`: under setting [1], the AC50 was 10.3 µM [falling, partial curve, poor fit].

For `Cc1ccc(S(=O)(=O)N2CCCC2C(=O)O)cc1` (configuration not stated), the AC50 under setting [1] was 6.31 µM [falling, single point].

Turning to `Cc1cc(NC(=O)c2ccccc2-c2ccccc2C(=O)O)no1`, under setting [1], the concentration at half-maximal activity (AC50) was 18.4 µM [rising, partial curve, poor fit].

`COC(=O)c1ccc(C(=O)NC(=S)Nc2nc3c(s2)CCCC3)cc1`: the half-maximal activity concentration (AC50) under setting [1] was 1.03 µM [falling, full curve].

For `Cc1ccc(-n2c(C)cc(C(=O)OCC(=O)N(C)C3CCS(=O)(=O)C3)c2C)cc1` (configuration not stated), the half-maximal activity concentration (AC50) under setting [1] was 5.8 µM [falling, partial curve, poor fit].

As for `O=[N+]([O-])c1cccc(-c2cnc3ccccc3n2)c1`, the AC50 under setting [1] is 6.31 µM [rising, partial curve].

`O=C(NCCc1ccc(Cl)cc1)c1cnccn1`: the AC50 under setting [1] was 2.51 µM [rising, single point].

Take `COc1ccc(/C=N\NC(=O)c2sc(N)nc2C)cc1OC`: the half-maximal activity concentration (AC50) under setting [1] was 11.2 µM [falling, partial curve, poor fit].

For the molecule `O=C(NC1CC1)C1C2C3C4CC5C3C5C4C12` (configuration not stated), the AC50 under setting [1] was 6.31 µM [rising, single point].

As to `O=C(NCc1ccc(-c2nc3ccccc3s2)cc1)c1ccco1`, the AC50 under setting [1] is 23.1 µM [rising, single point].

For `COC(=O)c1ccc(CSc2nnc(Nc3ccccc3OC)s2)o1`, the half-maximal activity concentration (AC50) under setting [1] was 15.8 µM [falling, single point].

Turning to `Clc1ccc(CN2CCC(Cc3ccccc3)CC2)cc1`, the AC50 under setting [1] is 23.1 µM [rising, single point].

For the molecule `CCOc1ccc(N(C(=O)c2snc(C(N)=O)c2N)C(C)C(=O)NC2CCCCC2)cc1` (configuration not stated), the half-maximal activity concentration (AC50) under setting [1] was 35.5 µM [falling, single point].

For the molecule `O=C(O)CN1C2=NCCCN2c2ccccc21`, the AC50 under setting [1] is 22.4 µM [rising, single point].

Turning to `Cc1ccc(NC(=O)COc2ccc(N(C)C(=O)C(C)(C)C)cc2)cc1S(=O)(=O)N1CCCCC1`, the concentration at half-maximal activity (AC50) under setting [1] was 0.116 µM [falling, full curve, poor fit].

With `Cc1ccccc1Nc1nc(N)nc(-c2oc3ccccc3c2C)n1`, the AC50 under setting [1] was 0.224 µM [falling, full curve, poor fit].

As for `Cc1oc2cc(O)ccc2c(=O)c1Oc1ccc(F)cc1`, under setting [1], the AC50 is 2.82 µM [rising, partial curve, poor fit].

Consider `CCOCC(=O)Nc1nc2ccc(S(C)(=O)=O)cc2s1`, for which the concentration at half-maximal activity (AC50) under setting [1] is 7.31 µM [rising, partial curve].
